# For at least one compound, name, drawing or mass did not settle the structure.
# System: striatal DAT
# Experiment: PET imaging in awake rhesus monkeys
# Type: in vivo
# Conditions: rhesus monkey
# Experimental: The regional kinetics of [^18F] […] Both [^18F] […] [^18F] […] The peak uptake ratio of striatumwcerebellum was 4:1 at 20 minutes for [^18F] […] 6d. The in vivo ratio of [1^18F] […] FECNT, 5:1. [^18F]
compound,measurement,value
"COC(=O)[C@H]1[C@@H](c2ccc(Cl)cc2)C[C@@H]2CC[C@H]1N2CC[18F] [[^18F] FECNT, reference compound]",in vivo ratio (striatum/cerebellum) of comparison tracer,5:1

# Source: US6344179B1, “Fluoralkenyl nortropanes” (Emory University, priority 1999, dated 2002)
